Reference: US20030092683A1, “Use of tetracyclines as neuro-protective agents and for the treatment of parkinson's disease and related disorders” (priority 2001, published 2003)
At least one compound was matched to its structure with a doubt left.

Test system: neuronal cell cultures
Assay: 6-hydroxy- and NO-mediated cell death in neuronal cell cultures
Type: cell-based

SMILES: CN(C)c1ccc(O)c2c1C[C@H]1C[C@H]3[C@H](N(C)C)C(O)=C(C(N)=O)C(=O)[C@@]3(O)C(O)=C1C2=O [minocycline]
- neuroprotection against 6-hydroxy- and NO-mediated cell death: neuroprotective
